Experimental findings from patent publication US20230201357, “D-DIMER-SPECIFIC APTAMERS AND METHODS OF USE IN DIAGNOSTICS, THERAPEUTIC AND THERANOSTIC PURPOSES” (APTAMER DIAGNOSTIC, INC., published 2023) are described below.

Chains of the proteins cited; added tags and fusions are not shown. A line that says so, or that is headed by a name, gives the form on record, which may keep a tag or linker.
D-dimer (cross-linked fibrin degradation product) (Homo sapiens), one chain, as listed by the source, chain 3 of 3: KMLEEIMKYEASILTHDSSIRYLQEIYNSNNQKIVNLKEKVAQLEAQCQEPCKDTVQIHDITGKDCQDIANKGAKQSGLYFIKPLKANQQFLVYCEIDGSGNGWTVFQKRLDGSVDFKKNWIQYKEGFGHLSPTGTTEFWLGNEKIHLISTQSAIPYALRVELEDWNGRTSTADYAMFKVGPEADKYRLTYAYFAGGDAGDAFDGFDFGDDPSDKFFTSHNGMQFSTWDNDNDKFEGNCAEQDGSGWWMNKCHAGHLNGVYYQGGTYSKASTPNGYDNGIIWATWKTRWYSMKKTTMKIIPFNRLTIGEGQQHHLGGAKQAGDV
D-dimer (cross-linked fibrin degradation product) (Homo sapiens), one chain, as listed by the source, chain 1 of 3: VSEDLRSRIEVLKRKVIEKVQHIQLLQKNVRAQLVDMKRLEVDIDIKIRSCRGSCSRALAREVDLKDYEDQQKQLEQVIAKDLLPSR
D-dimer (cross-linked fibrin degradation product) (Homo sapiens), one chain, as listed by the source, chain 2 of 3: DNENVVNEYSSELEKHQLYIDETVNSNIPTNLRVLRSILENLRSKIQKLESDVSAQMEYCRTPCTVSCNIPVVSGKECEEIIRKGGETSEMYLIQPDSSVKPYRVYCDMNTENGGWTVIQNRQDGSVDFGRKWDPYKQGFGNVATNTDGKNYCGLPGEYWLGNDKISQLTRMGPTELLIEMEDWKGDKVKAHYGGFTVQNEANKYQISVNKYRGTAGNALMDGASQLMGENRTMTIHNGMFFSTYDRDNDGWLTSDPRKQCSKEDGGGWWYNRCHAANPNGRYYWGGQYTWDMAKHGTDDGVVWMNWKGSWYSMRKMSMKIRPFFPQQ

For some of these results: Weaker means in comparison with the reference protein, sequence or condition of that experiment. For some of these results: For at least one entry, the source does not settle the construct or the ends of the probe.

In data set [1] the test system is D-dimer (cross-linked fibrin degradation product) (Homo sapiens). The data set can be described thus: SELEX. To be noted: enrichment only, purified native protein, single-stranded DNA.
The test system is the same in data set [2]. Nature of the data set: ELONA. To be noted: 25 nM, purified native protein, single-stranded DNA.
Where [3] appears, read: lower binding than ADI1701, label: biotin.
The mark [4] stands for this setting: full length shows best binding, label: 3' biotin, variant of ADI1701.

With “TGGCTCGGTGTAGACTCCCGCGGAGATTCAGTTCCCTGTT [ADI1713]”, in data set [1] (187 reads at round 9), the selection result was “selected”.
For “GCCGGTGTAGGTGGTGTAGACCATTTCTCTCGTGCTTGGC [ADI1703]”, the binding result in data set [2] (setting [3]) is given as “binds more weakly”.
Take “GTCGATGTAGATGGTGCAGACCAGCCTTCGTTGTAGTCCA [ADI1708]”: the selection result in data set [1] (354 reads at round 9) is recorded as “selected”.
Regarding “GCGGCACGGCAAGGCTGTTCGTTGTTTGTTGTGACGCCCG [ADI1712]”, the selection result in data set [1] (192 reads at round 9) is “selected”.
On to “GCGCGGTCCCGATTTGGTGTAAAATTCCCTCAGCCCTACG [ADI1702]”, for which the binding result in data set [2] (setting [3]) is recorded as “binds more weakly”.
For the sequence “GCTGTGGGGCCAGTTTCGATGTAGAAATCCGATATGTAAC [ADI1706]”, in data set [1] (426 reads at round 9), the selection result is listed as “selected”.
For the sequence “CGGTCCCGATTTGGTGTAAAATTCCCTCAGCC [ADI1701Trun5]”, the binding result in data set [2] (setting [4]) is listed as “binds more weakly”.
With “TCCCGATTTGGTGTAAAATTCCCTCAGCCCTACA [ADI1701Trun2]”, the binding result in data set [2] (setting [4]) is recorded as “binds more weakly”.
Consider “GCGCGGTCCCGATTTGGTGTAAAATTCCCT [ADI1701Trun4]”, for which, in data set [2] (setting [4]), the binding result was “binds more weakly”.
With “CGGTGTAGACCCTGGAGAGGGTGTGCATATGTCCGGTTGC [ADI1705]”, in data set [1] (489 reads at round 9), the selection result was “selected”.
On to “AGACCCGCGGTTCGTCGAGCTCTTGCGGCAGGGTCCAAGA [ADI1710]”, for which the selection result in data set [1] (230 reads at round 9) is reported as “selected”.
For the sequence “GCGCGGTCCCGATTTGGTGTAAAATTCCCTCAGCC [ADI1701Trun3]”, the binding result in data set [2] (3' deletion of 5 bases affected binding, label: 3' biotin, variant of ADI1701) was “binds more weakly”.
With “GCCGGTGTAGGTCACAAAGGTGATCCGATCTCCCGTATGT [ADI1709]”, the selection result in data set [1] (243 reads at round 9) is “selected”.
For “GGCGATGTAGCAGCCGCAGGGCTTACTTCTATACACCTCG [ADI1715]”, in data set [1] (164 reads at round 9), the selection result is listed as “selected”.
Consider “GGCGATGTAGCGTGTGAAGACACTCCTGAATAGCTGCCTG [ADI1704]”, for which the selection result in data set [1] (530 reads at round 9) is “selected”.
“AGACCGATGTAGGCCCAGAAGTGGGTGTCCGCACAAGTGC [ADI1707]”: the selection result in data set [1] (386 reads at round 9) was “selected”.
